# Test results published in the supplement of paper PMC8728848.
# This is one part of the list.
# Assays:
# Experiment in all cases: glycan array binding signal (z-score within array); higher = stronger binding
# Conditions in all cases: glycan notation: IUPAC condensed, linker removed
# [1] = target: GlcNAc(b1-3)Gal(b1-4)GlcNAc(b1-3)Gal(b1-4)GlcNAc(b1-2)Man(a1-3)[GlcNAc(b1-3)Gal(b1-4)GlcNAc(b1-3)Gal(b1-4)GlcNAc(b1-2)Man(a1-6)]Man(b1-4)GlcNAc(b1-4)GlcNAc
# In short: (§1)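 The binding signal is a Z-score computed within each array. Data were drawn from 3228 arrays in the Consortium for Functional Glycomics database, restricted to those with a known protein sequence. Scores were averaged over arrays of the same protein sequence at different concentrations or buffers, and over linkers, and negative values can be taken as non-binding.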
# [2] = target: GlcNAc(b1-3)Gal(b1-4)GlcNAc(b1-3)Gal(b1-4)GlcNAc(b1-2)Man(a1-3)[GlcNAc(b1-3)Gal(b1-4)GlcNAc(b1-3)Gal(b1-4)GlcNAc(b1-2)Man(a1-6)]Man(b1-4)GlcNAc(b1-4)[Fuc(a1-6)]GlcNAc
# In short: as §1
# [3] = target: GlcNAc(b1-3)Gal(b1-4)GlcNAc(b1-3)Gal(b1-4)GlcNAc(b1-2)[GlcNAc(b1-3)Gal(b1-4)GlcNAc(b1-3)Gal(b1-4)GlcNAc(b1-6)]Man(a1-6)[GlcNAc(b1-3)Gal(b1-4)GlcNAc(b1-3)Gal(b1-4)GlcNAc(b1-2)Man(a1-3)]Man(b1-4)GlcNAc(b1-4)[Fuc(a1-6)]GlcNAc
# In short: as §1
# [4] = target: GlcNAc(b1-3)Gal(b1-4)GlcNAc(b1-3)Gal(b1-4)GlcNAc(b1-3)Gal(b1-4)GlcNAc(b1-2)Man(a1-3)[GlcNAc(b1-3)Gal(b1-4)GlcNAc(b1-3)Gal(b1-4)GlcNAc(b1-3)Gal(b1-4)GlcNAc(b1-2)Man(a1-6)]Man(b1-4)GlcNAc(b1-4)GlcNAc
# In short: as §1
# [5] = target: GlcNAc(b1-3)Gal(b1-4)GlcNAc(b1-3)Gal(b1-4)GlcNAc(b1-3)Gal(b1-4)GlcNAc(b1-2)Man(a1-3)[GlcNAc(b1-3)Gal(b1-4)GlcNAc(b1-3)Gal(b1-4)GlcNAc(b1-3)Gal(b1-4)GlcNAc(b1-2)Man(a1-6)]Man(b1-4)GlcNAc(b1-4)[Fuc(a1-6)]GlcNAc
# In short: as §1
# [6] = target: GlcNAc(b1-3)Gal(b1-4)GlcNAc(b1-3)Gal(b1-4)GlcNAc(b1-3)Gal(b1-4)GlcNAc(b1-2)[GlcNAc(b1-3)Gal(b1-4)GlcNAc(b1-3)Gal(b1-4)GlcNAc(b1-3)Gal(b1-4)GlcNAc(b1-6)]Man(a1-6)[GlcNAc(b1-3)Gal(b1-4)GlcNAc(b1-3)Gal(b1-4)GlcNAc(b1-3)Gal(b1-4)GlcNAc(b1-2)Man(a1-3)]Man(b1-4)GlcNAc(b1-4)[Fuc(a1-6)]GlcNAc
# In short: as §1
# [7] = target: GlcNAc(b1-3)Gal(b1-4)GlcNAc(b1-3)Gal(b1-4)GlcNAc(b1-3)Gal(b1-4)GlcNAc(b1-3)Gal(b1-4)GlcNAc(b1-2)Man(a1-3)[GlcNAc(b1-3)Gal(b1-4)GlcNAc(b1-3)Gal(b1-4)GlcNAc(b1-3)Gal(b1-4)GlcNAc(b1-3)Gal(b1-4)GlcNAc(b1-2)Man(a1-6)]Man(b1-4)GlcNAc(b1-4)GlcNAc
# In short: as §1
# [8] = target: GlcNAc(b1-3)Gal(b1-4)GlcNAc(b1-3)Gal(b1-4)GlcNAc(b1-3)Gal(b1-4)GlcNAc(b1-3)Gal(b1-4)GlcNAc(b1-2)Man(a1-3)[GlcNAc(b1-3)Gal(b1-4)GlcNAc(b1-3)Gal(b1-4)GlcNAc(b1-3)Gal(b1-4)GlcNAc(b1-3)Gal(b1-4)GlcNAc(b1-2)Man(a1-6)]Man(b1-4)GlcNAc(b1-4)[Fuc(a1-6)]GlcNAc
# In short: as §1
# [9] = target: GlcNAc(b1-3)Gal(b1-4)GlcNAc(b1-3)Gal(b1-4)GlcNAc(b1-3)Gal(b1-4)GlcNAc(b1-3)Gal(b1-4)GlcNAc(b1-2)[GlcNAc(b1-3)Gal(b1-4)GlcNAc(b1-3)Gal(b1-4)GlcNAc(b1-3)Gal(b1-4)GlcNAc(b1-3)Gal(b1-4)GlcNAc(b1-6)]Man(a1-6)[GlcNAc(b1-3)Gal(b1-4)GlcNAc(b1-3)Gal(b1-4)GlcNAc(b1-3)Gal(b1-4)GlcNAc(b1-3)Gal(b1-4)GlcNAc(b1-2)Man(a1-3)]Man(b1-4)GlcNAc(b1-4)[Fuc(a1-6)]GlcNAc
# In short: as §1
# [10] = target: GlcNAc(b1-3)Gal(b1-4)GlcNAc(b1-3)Gal(b1-4)GlcNAc(b1-3)GalNAc
# In short: as §1
# [11] = target: GlcNAc(b1-3)Gal(b1-4)GlcNAc(b1-3)GalNAc
# In short: as §1
# [12] = target: GlcNAc(b1-3)Gal(b1-4)GlcNAc(b1-3)[GlcNAc(b1-3)Gal(b1-4)GlcNAc(b1-3)]GalNAc
# In short: as §1
# [13] = target: GlcNAc(b1-3)Gal(b1-4)GlcNAc(b1-6)[Gal(b1-3)]GalNAc
# In short: as §1
# [14] = target: GlcNAc(b1-3)Gal(b1-4)GlcNAc(b1-6)[GlcNAc(b1-3)Gal(b1-3)]GalNAc
# In short: as §1
# [15] = target: GlcNAc(b1-3)Gal(b1-4)GlcNAc(b1-6)[GlcNAc(b1-3)]Gal(b1-4)GlcNAc
# In short: as §1
# GlcNAc(b1-3)GalNAc = target: GlcNAc(b1-3)GalNAc
# In short: as §1
# GlcNAc(b1-3)Man = target: GlcNAc(b1-3)Man
# In short: as §1
# [16] = target: GlcNAc(b1-3)[GlcNAc(b1-4)][GlcNAc(b1-6)]GlcNAc
# In short: as §1
# [17] = target: GlcNAc(b1-3)[GlcNAc(b1-6)]Gal(b1-4)GlcNAc
# In short: as §1
# [18] = target: GlcNAc(b1-3)[GlcNAc(b1-6)]GalNAc
# In short: as §1
# [19] = target: GlcNAc(b1-4)Gal(b1-4)GlcNAc
# In short: as §1
# GlcNAc(b1-4)GlcNAc = target: GlcNAc(b1-4)GlcNAc
# In short: as §1
# [20] = target: GlcNAc(b1-4)GlcNAc(b1-4)GlcNAc
# In short: as §1
# [21] = target: GlcNAc(b1-4)GlcNAc(b1-4)GlcNAc(b1-4)GlcNAc(b1-4)GlcNAc
# In short: as §1
# [22] = target: GlcNAc(b1-4)GlcNAc(b1-4)GlcNAc(b1-4)GlcNAc(b1-4)GlcNAc(b1-4)GlcNAc
# In short: as §1
# [23] = target: GlcNAc(b1-4)[GlcNAc(b1-6)]GalNAc
# In short: as §1
# [24] = target: GlcNAc(b1-6)Gal(b1-4)GlcNAc
# In short: as §1
# GlcNAc(b1-6)GalNAc = target: GlcNAc(b1-6)GalNAc
# In short: as §1
# [25] = target: GlcNAc6S(b1-3)Gal(b1-4)GlcNAc
# In short: as §1
# Kdn(a2-3)Gal(b1-3)GalNAc = target: Kdn(a2-3)Gal(b1-3)GalNAc
# In short: as §1
# Kdn(a2-3)Gal(b1-3)GlcNAc = target: Kdn(a2-3)Gal(b1-3)GlcNAc
# In short: as §1
# Kdn(a2-3)Gal(b1-4)Glc = target: Kdn(a2-3)Gal(b1-4)Glc
# In short: as §1
# Kdn(a2-3)Gal(b1-4)GlcNAc = target: Kdn(a2-3)Gal(b1-4)GlcNAc
# In short: as §1
# [26] = target: Kdn(a2-3)Gal(b1-4)[Fuc(a1-3)]GlcNAc
# In short: as §1
# Kdn(a2-6)Gal(b1-4)GlcNAc = target: Kdn(a2-6)Gal(b1-4)GlcNAc
# In short: as §1
# [27] = target: Man(a1-2)Man(a1-2)Man(a1-3)Man
# In short: as §1
# [28] = target: Man(a1-2)Man(a1-2)Man(a1-6)[Man(a1-3)]Man
# In short: as §1
# Man(a1-2)Man(a1-3)Man = target: Man(a1-2)Man(a1-3)Man
# In short: as §1
binder,measurement,setting,value
LlpA (Burkholderia cenocepacia) (protein) MGSSHHHHHHSSGLVPRGSHKILGSNETLSAGNVVYSDNGQYHLAMQTDGNLVVYGPTGAVWQSQTSGSGGNRAVMQGDGNLVIYRADNTAAWSSKTAHPGAFLAVQDDGNVVIYWPRPAWASNTSDPATQQSAESKYLASGSTMSAGQTVTVAQYMLVFQADGNLVLYKNGGNPIWSTGTQGKGATYAVMQSDGNFVIYAGSTALWSTKTNGANGAQLVLQSDGNLVIYAPTAAWSTKFGLVTAPTSTSTSNNGPGSGICVGVCPPHPLNGNPFSPVGVGTTGLGFPTPGYPGAAF,glycan array binding signal (z-score),[1],0.803
same,glycan array binding signal (z-score),[2],1.5
same,glycan array binding signal (z-score),[3],1.97
same,glycan array binding signal (z-score),[4],-0.006
same,glycan array binding signal (z-score),[5],0.114
same,glycan array binding signal (z-score),[6],2.12
same,glycan array binding signal (z-score),[7],1.56
same,glycan array binding signal (z-score),[8],0.218
same,glycan array binding signal (z-score),[9],1.97
same,glycan array binding signal (z-score),[10],0.239
same,glycan array binding signal (z-score),[11],0.421
same,glycan array binding signal (z-score),[12],0.773
same,glycan array binding signal (z-score),[13],-0.276
same,glycan array binding signal (z-score),[14],0.128
same,glycan array binding signal (z-score),[15],0.744
same,glycan array binding signal (z-score),GlcNAc(b1-3)GalNAc,-0.813
same,glycan array binding signal (z-score),GlcNAc(b1-3)Man,0.552
same,glycan array binding signal (z-score),[16],-0.705
same,glycan array binding signal (z-score),[17],0.383
same,glycan array binding signal (z-score),[18],0.522
same,glycan array binding signal (z-score),[19],-0.157
same,glycan array binding signal (z-score),GlcNAc(b1-4)GlcNAc,-0.529
same,glycan array binding signal (z-score),[20],-0.574
same,glycan array binding signal (z-score),[21],0.226
same,glycan array binding signal (z-score),[22],-1.09
same,glycan array binding signal (z-score),[23],-0.234
same,glycan array binding signal (z-score),[24],-0.977
same,glycan array binding signal (z-score),GlcNAc(b1-6)GalNAc,-0.002
same,glycan array binding signal (z-score),[25],-0.237
same,glycan array binding signal (z-score),Kdn(a2-3)Gal(b1-3)GalNAc,-0.002
same,glycan array binding signal (z-score),Kdn(a2-3)Gal(b1-3)GlcNAc,0.512
same,glycan array binding signal (z-score),Kdn(a2-3)Gal(b1-4)Glc,-1.09
same,glycan array binding signal (z-score),Kdn(a2-3)Gal(b1-4)GlcNAc,-0.006
same,glycan array binding signal (z-score),[26],-0.935
same,glycan array binding signal (z-score),Kdn(a2-6)Gal(b1-4)GlcNAc,-0.235
same,glycan array binding signal (z-score),[27],-0.322
same,glycan array binding signal (z-score),[28],-0.239
same,glycan array binding signal (z-score),Man(a1-2)Man(a1-3)Man,-1.07
